PubChem BioAssay AID1259424 | University of Nebraska Medical Center | 2018
Shown is an unselected part of about 14,000 reagents tested. 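Higher correlation or smaller distance means closer resemblance to KSR1 loss; control wells, including KSR1 knockdowns, recur on many plates.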 The numbers tell different reagents against one gene apart. Not all columns of the deposit are shown. Reagent sequences are not shown. Not given: the time to read-out.

Test: 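Rank knockdowns across the genome by resemblance to the KSR1 depletion profile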 (primary screen)
Cells: human HCT116 colon cancer cells
Reagents: siRNA pool against human genes, 50 nM
Measured: 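Six signature mRNAs by branched-DNA multiplex assay, scaled to two housekeeping genes and non-targeting median, log2; matched to mean KSR1 knockdown profile by Pearson correlation and euclidean distance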
Scale: mean correlation with KSR1 profile and KSR1 correlation: higher = expression change more like KSR1 knockdown; mean distance from KSR1 profile: higher = expression change less like KSR1 knockdown

gene	pool no.	mean correlation with KSR1 profile	mean distance from KSR1 profile	KSR1 correlation, replicate 1
IL15	1	0.0571	0.964	-0.374
FRYL	1	-0.615	2.05	-0.509
DYNLT2	1	-0.181	3.26	-0.201
RALGDS	1	-0.528	2.32	-0.543
USP3	1	-0.359	1.97	-0.24
USP15	1	0.156	2.06	0.205
CHM	1	-0.373	1.74	-0.269
CHM	2	-0.391	1.9	-0.361
SEC23A	1	-0.196	2.57	-0.115
SLC30A6	1	-0.628	0.889	-0.144
SPATA2	1	0.314	3.35	0.428
SURF1	1	-0.634	2.06	-0.667
FABP5	1	-0.0247	1.34	0.0178
FBXW4	1	-0.0845	2.43	-0.331
BHLHE41	1	0.535	1.8	0.806
ZC4H2	1	-0.094	2.55	-0.11
STAT2	1	0.637	2.91	0.746
CHD2	1	-0.612	1.68	-0.73
ZNF174	1	-0.478	2.35	-0.419
EPHB1	1	0.651	1.17	0.554
POLR3C	1	-0.394	1.78	-0.252
MRPL17	1	-0.128	3.73	-0.214
GP9	1	-0.196	2.82	0.0646
UPK2	1	0.23	2.81	0.235
HSDL1	1	0.346	1.64	0.258
FRMPD4	1	-0.698	2.29	-0.612
UCP3	1	-0.581	3.79	-0.681
ZNRF3	1	0.752	0.984	0.715
TCERG1	1	0.645	1.51	0.421
CGNL1	1	-0.896	4.51	-0.288
CLPTM1L	1	0.816	1.64	0.679
SNAPC5	1	-0.308	1.19	-0.485
CFAP91	1	0.261	1.35	-0.138
ZNF529	1	-0.671	6.86	-0.55
ITM2C	1	-0.597	3.05	-0.707
SLC35G2	1	0.476	1.48	0.339
POMZP3	1	-0.496	2.66	-0.605
MED17	1	-0.489	2.43	-0.29
TRMT1L	1	-0.429	2.39	-0.387
VPS33A	1	0.013	2.05	-0.0447
CARD18	1	-0.00373	1.78	-0.168
NPM3	1	-0.182	1.26	-0.374
CLDN1	1	0.562	1.14	0.624
CHRND	1	-0.163	2.66	-0.013
SNX12	1	0.0237	1.83	-0.438
SMIM7	1	0.00714	2.06	-0.413
ZNF385B	1	-0.154	2.15	-0.0715
TSPAN2	1	-0.204	1.84	-0.0597
GCAT	1	-0.575	3.74	-0.63
CARMIL1	1	-0.398	1.9	-0.534
GJC2	1	-0.226	1.94	-0.14
ZNF22	1	0.251	2.09	0.0992
S100A11	1	-0.269	3.31	-0.32
MDM4	1	-0.000496	1.89	-0.214
TRIM45	1	0.489	1.4	0.324
P2RX6	1	-0.447	2.67	-0.485
FCGR2A	1	0.448	0.987	0.317
CLN5	1	0.222	3.3	0.21
HMGCR	1	0.225	1.62	0.352
SPMIP6	1	0.571	1.16	0.124
DNAJC1	1	0.12	2.08	0.0346
NCK2	1	-0.335	2.97	-0.264
CCDC88C	1	0.421	1.21	0.377

Part of the list above, limited to “mean correlation with KSR1 profile”.
ITM2C	-0.597
SLC35G2	0.476
POMZP3	-0.496
MED17	-0.489
